PubChem BioAssay AID1053208 – Peter MacCallum Cancer Centre | 2014
This is one part, drawn at random, of about 17,000 reagents tested. 788 of them (4.7%) were called active. 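Calls rest on z-score classes alone; an extra cut-off of viability at most 70% of control was not applied to them.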 No sequences are given here.

Purpose: 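Synthetic lethal interactions between gene loss and doxorubicin in osteosarcoma cells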 (primary screen)
System: mouse osteosarcoma cells, early-passage culture from an engineered mouse model of fibroblastic bone tumour
Reagents: siRNA pool against mouse genes, 40 nM
Duration: about 120 h (48 h before drug, then 72 h with drug)
Treatment: doxorubicin 100 nM for 72 h, roughly 30-40% inhibitory dose
Detection: 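Viability read as ATP luminescence after 72 h of 100 nM doxorubicin or none, duplicate wells averaged, scaled to non-targeting siRNA, then expressed as robust z-scores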
Reading the numbers: viability z-score with doxorubicin and doxorubicin viability vs non-targeting: higher = more viable cells under doxorubicin; viability z-score without drug: higher = more viable cells with knock-down alone; z-score of drug to no-drug ratio: higher = less drug sensitisation by knock-down
Hit rule: 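Called active if knock-down leaves viability unchanged without drug (z within -2 to 2) but lowers it with doxorubicin (z at or under -2)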

| Target gene | combined z-score class | viability z-score with doxorubicin | viability z-score without drug | z-score of drug to no-drug ratio | doxorubicin viability vs non-targeting | Outcome |
| --- | --- | --- | --- | --- | --- | --- |
| Sms (GeneID 20603) | no change with or without drug | -0.22 | -0.67 | 0.34 | 0.92 | inactive |
| Hlx (GeneID 15284) | no change with or without drug | 0.45 | -0.51 | 1.01 | 0.98 | inactive |
| Cchcr1 (GeneID 240084) | no change with or without drug | 0.9 | 1.18 | 0.22 | 1.02 | inactive |
| Ceacam2 (GeneID 26367) | low cell count with doxorubicin only | -2.14 | -0.51 | -1.8 | 0.75 | active |
| Marcks (GeneID 17118) | no change with or without drug | 1.69 | -0.84 | 2.59 | 1.09 | inactive |
| Snx17 (GeneID 266781) | no change with or without drug | -1.57 | -0.51 | -1.24 | 0.8 | inactive |
| Inhbc (GeneID 16325) | no change with or without drug | 0.34 | 1.52 | -0.56 | 0.97 | inactive |
| Zfp811 (GeneID 240063) | no change with or without drug | -0.22 | 0.17 | -0.22 | 0.92 | inactive |
| Hgsnat (GeneID 52120) | no change with or without drug | -0.22 | 0.51 | -0.45 | 0.92 | inactive |
| Or8b12 (GeneID 258882) | no change with or without drug | 0 | -0.51 | 0.45 | 0.94 | inactive |
| Or6c3 (GeneID 258544) | no change with or without drug | -1.35 | -1.18 | -0.56 | 0.82 | inactive |
| Slamf1 (GeneID 27218) | high cell count without drug only | 0.9 | 2.02 | -0.34 | 1.02 | inactive |
| Vmn1r45 (GeneID 22297) | no change with or without drug | -1.12 | 0.67 | -1.46 | 0.84 | inactive |
| Glb1 (GeneID 12091) | no change with or without drug | 0.9 | -0.51 | 1.46 | 1.02 | inactive |
| Rnf17 (GeneID 30054) | no change with or without drug | 0.79 | -0.67 | 1.46 | 1.01 | inactive |
| Or2at1 (GeneID 258353) | no change with or without drug | 0.22 | 0.51 | 0 | 0.96 | inactive |
| 1700041G16Rik (GeneID 73299) | no change with or without drug | 1.35 | 0.67 | 1.01 | 1.06 | inactive |
| Or7g28 (GeneID 258279) | no change with or without drug | -1.12 | -0.84 | -0.56 | 0.84 | inactive |
| Wdr20 (GeneID 69641) | no change with or without drug | -1.12 | 0.17 | -1.12 | 0.84 | inactive |
| Itpr2 (GeneID 16439) | no change with or without drug | 0.22 | -0.34 | 0.56 | 0.96 | inactive |
| Fpr-rs7 (GeneID 321021) | no change with or without drug | -0.67 | 0.84 | -1.12 | 0.88 | inactive |
| Txndc16 (GeneID 70561) | no change with or without drug | -0.34 | -0.84 | 0.34 | 0.91 | inactive |
| Mgat2 (GeneID 217664) | no change with or without drug | -0.79 | -0.51 | -0.34 | 0.87 | inactive |
| Bhlhe40 (GeneID 20893) | no change with or without drug | 1.57 | 0.17 | 1.69 | 1.08 | inactive |
| Usf1 (GeneID 22278) | no change with or without drug | 0.22 | 0.84 | -0.22 | 0.96 | inactive |
| Kcnv1 (GeneID 67498) | no change with or without drug | 1.24 | 0.51 | 1.01 | 1.05 | inactive |
| Psca (GeneID 72373) | no change with or without drug | 0.45 | 1.01 | -0.11 | 0.98 | inactive |
| Zfa-ps (GeneID 22639) | high cell count without drug only | 0.22 | 2.19 | -1.01 | 0.96 | inactive |
| Spef1 (GeneID 70997) | no change with or without drug | 1.8 | -0.17 | 2.14 | 1.1 | inactive |
| Tff1 (GeneID 21784) | high cell count with doxorubicin only | 2.92 | 0.51 | 2.7 | 1.2 | inactive |
| Efhd2 (GeneID 27984) | no change with or without drug | -1.35 | 0 | -1.35 | 0.82 | inactive |
| Hells (GeneID 15201) | no change with or without drug | 0.67 | 0.84 | 0.22 | 1 | inactive |
| Chrm5 (GeneID 213788) | no change with or without drug | -1.46 | -0.51 | -1.12 | 0.81 | inactive |
| Or5ac19 (GeneID 258996) | no change with or without drug | -0.34 | 0.51 | -0.56 | 0.91 | inactive |

Records listed so far whose gene name starts with S or s (4):
| Target gene | combined z-score class | viability z-score with doxorubicin | viability z-score without drug | z-score of drug to no-drug ratio | doxorubicin viability vs non-targeting | Outcome |
| --- | --- | --- | --- | --- | --- | --- |
| Sms (GeneID 20603) | no change with or without drug | -0.22 | -0.67 | 0.34 | 0.92 | inactive |
| Snx17 (GeneID 266781) | no change with or without drug | -1.57 | -0.51 | -1.24 | 0.8 | inactive |
| Slamf1 (GeneID 27218) | high cell count without drug only | 0.9 | 2.02 | -0.34 | 1.02 | inactive |
| Spef1 (GeneID 70997) | no change with or without drug | 1.8 | -0.17 | 2.14 | 1.1 | inactive |
